Assay [1] deals with TCR with TRBC1 on Jurkat cells (human) (UniProt P01850). Kind of assay: flow cytometry on cells.
For assay [2] the target is unchanged. Kind of assay: flow cytometry cell binding to Jurkat E6.1 cells (TRBC1), signal:background ratio.

By UniProt entry, the sequences of proteins in these tests, tags left out.
UniProt P01850: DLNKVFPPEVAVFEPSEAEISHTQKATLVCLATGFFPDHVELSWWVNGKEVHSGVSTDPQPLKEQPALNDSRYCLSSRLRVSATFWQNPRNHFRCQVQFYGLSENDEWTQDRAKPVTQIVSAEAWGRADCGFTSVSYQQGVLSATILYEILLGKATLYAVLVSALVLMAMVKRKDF

These are yes or no findings as the source states them, for the method shown. Some results given as binding are weak or reduced against the parent protein; the word gives no strength.

B1: anti-TRBC1 antibody JOVI-1 mIgG2a (TRB1B1) (antibody, V domains shown)
VH: EVRLQQSGPDLIKPGASVKMSCKASGYTFTGYVMHWVKQRPGQGLEWIGFINPYNDDIQSNERFRGKATLTSDKSSTTAYMELSSLTSEDSAVYYCARGAGYNFDGAYRFFDFWGQGTTLTVSS
VL: DVVMTQSPLSLPVSLGDQASISCRSSQRLVHSNGNTYLHWYLQKPGQSPKLLIYRVSNRFPGVPDRFSGSGSGTDFTLKISRVEAEDLGIYFCSQSTHVPYTFGGGTKLEIK
B1: the binding result in assay [1] and in assay [2] was “binds” throughout.

The values are drawn from US20220306739A1.
